Results are given in words; binding and its absence hold for the method and conditions named. Some binding calls cover weakened binding; strength is not graded here.
Target: T1, Endogenous type II TGF-β receptor of L6 rat skeleton muscle myoblasts (rat) (UniProt P38438)
T1 sequence (looked up): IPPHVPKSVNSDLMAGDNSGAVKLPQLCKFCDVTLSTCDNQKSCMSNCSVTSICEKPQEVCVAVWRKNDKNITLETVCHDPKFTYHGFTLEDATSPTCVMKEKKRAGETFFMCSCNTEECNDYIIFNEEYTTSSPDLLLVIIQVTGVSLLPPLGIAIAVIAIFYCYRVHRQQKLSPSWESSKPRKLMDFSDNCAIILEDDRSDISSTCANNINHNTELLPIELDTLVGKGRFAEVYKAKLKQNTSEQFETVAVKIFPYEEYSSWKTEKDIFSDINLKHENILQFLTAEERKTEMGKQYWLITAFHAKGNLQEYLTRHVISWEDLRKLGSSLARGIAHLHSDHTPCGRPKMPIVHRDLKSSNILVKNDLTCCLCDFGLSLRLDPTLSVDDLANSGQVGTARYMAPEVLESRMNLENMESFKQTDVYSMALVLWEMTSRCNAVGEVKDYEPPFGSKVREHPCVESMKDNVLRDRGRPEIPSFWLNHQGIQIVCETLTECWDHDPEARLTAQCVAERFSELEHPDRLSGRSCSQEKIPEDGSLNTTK
Test: 125I-TGF-β cross-linking on L6 cells overexpressing the type III receptor

Protein sequences, listed by entry. Tags and fused reporters are not part of them. Residues count along the entry.
UniProt P01137, residues 279-390: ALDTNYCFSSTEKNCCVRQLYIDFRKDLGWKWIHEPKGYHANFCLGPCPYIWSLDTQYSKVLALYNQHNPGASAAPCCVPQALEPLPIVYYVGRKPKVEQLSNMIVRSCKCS

binding: binds
Substance: Recombinant human TGF-β1 (from UniProt P01137 279-390) (ligand)
